No constants are given. Whether binding was seen depends on the method and setting. Binding seen in cells or lysates may run through a third protein. These calls come from enrichment with a bait or labelling near it, and not all partners need be listed.
Experiments:
[1] = biological target: p85α regulatory subunit of phosphoinositide-3-kinase (PI3K) (human (endogenous in human cell lines)) (UniProt P27986); assay: affinity purification with mass spectrometry; IP of endogenous p85α (rabbit polyclonal antibody) from 10 mg lysate (0.5% NP-40) of human NSCLC and multiple myeloma lines under serum, starvation or kinase inhibitors, short SDS-PAGE, LC-MS/MS; hits kept after reciprocal BLAST and subtraction of rabbit IgG controls
[2] = biological target: Tyrosine-protein phosphatase non-receptor type 11 (SHP2) (human (endogenous in human cell lines)) (UniProt Q06124); assay: affinity purification with mass spectrometry; SHP2 IP analysed by LC-MS/MS; told only in the discussion, no method given

Sequences of proteins named here, by UniProt entry; tags and fusion partners are left off. Residues count along the entry.
UniProt P63104: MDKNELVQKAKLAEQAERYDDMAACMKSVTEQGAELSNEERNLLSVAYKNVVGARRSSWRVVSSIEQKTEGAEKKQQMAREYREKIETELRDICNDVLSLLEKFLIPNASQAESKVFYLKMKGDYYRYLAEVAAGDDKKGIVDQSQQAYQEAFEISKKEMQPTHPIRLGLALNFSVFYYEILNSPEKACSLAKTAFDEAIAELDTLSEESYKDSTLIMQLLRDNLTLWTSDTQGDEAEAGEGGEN
UniProt P33176: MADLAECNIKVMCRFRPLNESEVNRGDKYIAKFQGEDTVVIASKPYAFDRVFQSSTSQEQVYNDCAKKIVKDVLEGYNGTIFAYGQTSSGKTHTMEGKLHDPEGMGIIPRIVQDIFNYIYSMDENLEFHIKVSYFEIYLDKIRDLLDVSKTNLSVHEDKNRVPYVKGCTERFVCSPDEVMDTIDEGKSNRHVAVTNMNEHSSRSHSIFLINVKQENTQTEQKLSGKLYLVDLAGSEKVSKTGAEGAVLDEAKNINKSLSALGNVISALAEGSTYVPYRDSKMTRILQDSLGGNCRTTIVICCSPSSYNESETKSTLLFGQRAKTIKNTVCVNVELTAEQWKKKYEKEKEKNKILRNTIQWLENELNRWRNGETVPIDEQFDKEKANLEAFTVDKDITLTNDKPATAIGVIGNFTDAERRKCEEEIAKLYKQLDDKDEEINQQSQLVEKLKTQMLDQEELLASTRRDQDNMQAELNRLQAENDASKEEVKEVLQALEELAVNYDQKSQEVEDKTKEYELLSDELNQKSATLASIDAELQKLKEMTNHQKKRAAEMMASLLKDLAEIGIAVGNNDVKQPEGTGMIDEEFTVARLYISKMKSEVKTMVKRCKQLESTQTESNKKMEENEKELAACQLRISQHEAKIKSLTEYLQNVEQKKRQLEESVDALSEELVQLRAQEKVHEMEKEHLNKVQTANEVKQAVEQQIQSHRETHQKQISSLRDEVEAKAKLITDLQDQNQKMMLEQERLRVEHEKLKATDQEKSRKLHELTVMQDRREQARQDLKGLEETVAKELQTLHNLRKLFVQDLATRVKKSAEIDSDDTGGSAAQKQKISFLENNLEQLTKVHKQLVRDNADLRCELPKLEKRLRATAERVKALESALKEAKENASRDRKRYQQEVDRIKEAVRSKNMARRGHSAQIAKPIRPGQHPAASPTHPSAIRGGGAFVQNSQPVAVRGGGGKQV
UniProt Q14978: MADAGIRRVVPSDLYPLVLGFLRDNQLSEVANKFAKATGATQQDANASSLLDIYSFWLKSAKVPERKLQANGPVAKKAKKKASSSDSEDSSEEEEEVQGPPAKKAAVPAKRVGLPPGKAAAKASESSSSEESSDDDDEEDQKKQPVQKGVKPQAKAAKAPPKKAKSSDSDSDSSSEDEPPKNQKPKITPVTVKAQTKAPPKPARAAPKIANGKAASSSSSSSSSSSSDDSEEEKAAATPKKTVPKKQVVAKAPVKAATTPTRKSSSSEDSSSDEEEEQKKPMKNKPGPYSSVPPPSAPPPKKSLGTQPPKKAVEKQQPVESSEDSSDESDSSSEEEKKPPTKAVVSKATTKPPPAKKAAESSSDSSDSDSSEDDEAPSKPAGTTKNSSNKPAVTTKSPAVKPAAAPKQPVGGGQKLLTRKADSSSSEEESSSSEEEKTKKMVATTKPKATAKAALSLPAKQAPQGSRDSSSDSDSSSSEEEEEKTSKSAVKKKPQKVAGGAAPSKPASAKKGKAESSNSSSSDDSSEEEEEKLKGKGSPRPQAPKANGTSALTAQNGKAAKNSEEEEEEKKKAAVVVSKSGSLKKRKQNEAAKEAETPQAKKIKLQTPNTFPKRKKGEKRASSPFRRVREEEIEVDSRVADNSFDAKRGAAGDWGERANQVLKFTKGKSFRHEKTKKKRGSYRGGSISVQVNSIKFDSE
UniProt P16234, residues 24-1089: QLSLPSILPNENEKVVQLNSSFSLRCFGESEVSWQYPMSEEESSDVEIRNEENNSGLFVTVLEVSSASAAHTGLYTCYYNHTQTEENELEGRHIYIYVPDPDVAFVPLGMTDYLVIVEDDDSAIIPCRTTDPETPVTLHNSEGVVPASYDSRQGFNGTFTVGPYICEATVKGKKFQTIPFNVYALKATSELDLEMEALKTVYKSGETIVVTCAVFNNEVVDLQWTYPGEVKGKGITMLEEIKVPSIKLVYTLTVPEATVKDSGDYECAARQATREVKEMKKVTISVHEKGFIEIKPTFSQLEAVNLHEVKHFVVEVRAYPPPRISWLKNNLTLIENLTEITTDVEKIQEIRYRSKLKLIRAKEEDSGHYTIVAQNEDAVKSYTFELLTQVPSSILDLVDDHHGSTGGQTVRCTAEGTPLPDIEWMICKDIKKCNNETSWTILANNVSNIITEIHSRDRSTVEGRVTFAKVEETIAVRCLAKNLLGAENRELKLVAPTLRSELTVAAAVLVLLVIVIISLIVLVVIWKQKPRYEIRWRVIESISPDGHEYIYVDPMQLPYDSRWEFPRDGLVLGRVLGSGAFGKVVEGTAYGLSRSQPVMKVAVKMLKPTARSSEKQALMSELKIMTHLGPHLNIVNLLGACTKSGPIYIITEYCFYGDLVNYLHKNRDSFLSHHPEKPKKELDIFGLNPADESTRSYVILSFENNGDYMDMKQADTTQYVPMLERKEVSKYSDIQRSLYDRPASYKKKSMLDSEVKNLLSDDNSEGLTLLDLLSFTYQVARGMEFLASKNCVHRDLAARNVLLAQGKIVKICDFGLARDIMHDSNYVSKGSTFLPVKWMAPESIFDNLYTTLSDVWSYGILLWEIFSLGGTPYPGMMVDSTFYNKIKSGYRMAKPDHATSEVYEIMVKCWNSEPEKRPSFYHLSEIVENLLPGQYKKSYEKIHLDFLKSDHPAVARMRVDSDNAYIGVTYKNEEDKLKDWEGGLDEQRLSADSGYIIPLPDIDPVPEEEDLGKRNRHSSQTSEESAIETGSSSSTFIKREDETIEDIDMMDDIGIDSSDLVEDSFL
UniProt P51532: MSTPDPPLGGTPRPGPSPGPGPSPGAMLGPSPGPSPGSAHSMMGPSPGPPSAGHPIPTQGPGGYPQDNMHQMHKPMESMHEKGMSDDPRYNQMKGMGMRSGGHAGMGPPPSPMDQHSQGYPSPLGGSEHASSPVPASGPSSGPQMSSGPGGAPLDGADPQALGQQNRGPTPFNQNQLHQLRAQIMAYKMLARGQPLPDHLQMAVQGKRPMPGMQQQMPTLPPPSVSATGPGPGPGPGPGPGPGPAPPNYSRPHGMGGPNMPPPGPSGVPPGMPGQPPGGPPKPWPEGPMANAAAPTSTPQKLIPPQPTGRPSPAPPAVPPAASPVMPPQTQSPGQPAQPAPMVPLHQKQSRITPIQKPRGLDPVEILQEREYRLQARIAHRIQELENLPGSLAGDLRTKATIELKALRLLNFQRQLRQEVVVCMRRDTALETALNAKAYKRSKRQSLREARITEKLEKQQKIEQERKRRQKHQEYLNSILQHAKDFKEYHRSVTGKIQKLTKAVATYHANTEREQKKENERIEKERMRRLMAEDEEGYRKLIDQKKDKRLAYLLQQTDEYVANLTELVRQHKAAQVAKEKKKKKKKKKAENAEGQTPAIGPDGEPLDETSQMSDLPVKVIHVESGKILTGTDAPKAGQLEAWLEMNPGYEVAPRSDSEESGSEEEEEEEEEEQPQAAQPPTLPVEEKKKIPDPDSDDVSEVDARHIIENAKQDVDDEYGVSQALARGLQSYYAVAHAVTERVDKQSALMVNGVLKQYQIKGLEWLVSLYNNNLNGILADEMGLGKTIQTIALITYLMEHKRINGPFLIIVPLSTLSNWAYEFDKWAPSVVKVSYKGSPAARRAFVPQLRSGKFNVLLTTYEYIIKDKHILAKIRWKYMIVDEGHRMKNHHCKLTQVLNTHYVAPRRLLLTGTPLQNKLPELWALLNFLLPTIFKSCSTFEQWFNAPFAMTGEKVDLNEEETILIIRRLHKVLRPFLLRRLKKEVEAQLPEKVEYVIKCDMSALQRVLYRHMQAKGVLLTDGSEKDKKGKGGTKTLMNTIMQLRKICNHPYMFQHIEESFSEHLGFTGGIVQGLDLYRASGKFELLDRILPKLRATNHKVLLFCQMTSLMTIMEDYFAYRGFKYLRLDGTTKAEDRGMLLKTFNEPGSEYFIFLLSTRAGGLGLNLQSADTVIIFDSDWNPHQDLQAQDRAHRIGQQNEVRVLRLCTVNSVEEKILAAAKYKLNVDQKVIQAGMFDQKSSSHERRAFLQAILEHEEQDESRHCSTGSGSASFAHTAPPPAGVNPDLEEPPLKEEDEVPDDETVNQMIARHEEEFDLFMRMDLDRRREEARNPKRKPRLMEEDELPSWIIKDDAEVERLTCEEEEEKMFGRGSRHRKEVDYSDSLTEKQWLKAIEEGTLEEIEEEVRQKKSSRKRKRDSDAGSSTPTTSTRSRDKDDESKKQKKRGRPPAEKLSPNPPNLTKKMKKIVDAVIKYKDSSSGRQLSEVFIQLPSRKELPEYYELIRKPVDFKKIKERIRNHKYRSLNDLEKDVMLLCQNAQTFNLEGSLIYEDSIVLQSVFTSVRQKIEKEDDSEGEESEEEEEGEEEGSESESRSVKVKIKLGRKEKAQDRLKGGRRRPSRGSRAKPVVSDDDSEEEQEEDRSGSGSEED
UniProt Q07955: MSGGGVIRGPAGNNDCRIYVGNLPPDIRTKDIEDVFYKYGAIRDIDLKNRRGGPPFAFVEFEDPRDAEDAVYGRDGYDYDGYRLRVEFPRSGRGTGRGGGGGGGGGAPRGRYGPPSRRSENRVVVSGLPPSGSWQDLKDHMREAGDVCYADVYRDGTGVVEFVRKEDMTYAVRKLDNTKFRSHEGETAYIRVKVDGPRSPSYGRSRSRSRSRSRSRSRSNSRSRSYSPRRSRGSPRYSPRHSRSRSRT
UniProt Q9NYU2, residues 43-1555: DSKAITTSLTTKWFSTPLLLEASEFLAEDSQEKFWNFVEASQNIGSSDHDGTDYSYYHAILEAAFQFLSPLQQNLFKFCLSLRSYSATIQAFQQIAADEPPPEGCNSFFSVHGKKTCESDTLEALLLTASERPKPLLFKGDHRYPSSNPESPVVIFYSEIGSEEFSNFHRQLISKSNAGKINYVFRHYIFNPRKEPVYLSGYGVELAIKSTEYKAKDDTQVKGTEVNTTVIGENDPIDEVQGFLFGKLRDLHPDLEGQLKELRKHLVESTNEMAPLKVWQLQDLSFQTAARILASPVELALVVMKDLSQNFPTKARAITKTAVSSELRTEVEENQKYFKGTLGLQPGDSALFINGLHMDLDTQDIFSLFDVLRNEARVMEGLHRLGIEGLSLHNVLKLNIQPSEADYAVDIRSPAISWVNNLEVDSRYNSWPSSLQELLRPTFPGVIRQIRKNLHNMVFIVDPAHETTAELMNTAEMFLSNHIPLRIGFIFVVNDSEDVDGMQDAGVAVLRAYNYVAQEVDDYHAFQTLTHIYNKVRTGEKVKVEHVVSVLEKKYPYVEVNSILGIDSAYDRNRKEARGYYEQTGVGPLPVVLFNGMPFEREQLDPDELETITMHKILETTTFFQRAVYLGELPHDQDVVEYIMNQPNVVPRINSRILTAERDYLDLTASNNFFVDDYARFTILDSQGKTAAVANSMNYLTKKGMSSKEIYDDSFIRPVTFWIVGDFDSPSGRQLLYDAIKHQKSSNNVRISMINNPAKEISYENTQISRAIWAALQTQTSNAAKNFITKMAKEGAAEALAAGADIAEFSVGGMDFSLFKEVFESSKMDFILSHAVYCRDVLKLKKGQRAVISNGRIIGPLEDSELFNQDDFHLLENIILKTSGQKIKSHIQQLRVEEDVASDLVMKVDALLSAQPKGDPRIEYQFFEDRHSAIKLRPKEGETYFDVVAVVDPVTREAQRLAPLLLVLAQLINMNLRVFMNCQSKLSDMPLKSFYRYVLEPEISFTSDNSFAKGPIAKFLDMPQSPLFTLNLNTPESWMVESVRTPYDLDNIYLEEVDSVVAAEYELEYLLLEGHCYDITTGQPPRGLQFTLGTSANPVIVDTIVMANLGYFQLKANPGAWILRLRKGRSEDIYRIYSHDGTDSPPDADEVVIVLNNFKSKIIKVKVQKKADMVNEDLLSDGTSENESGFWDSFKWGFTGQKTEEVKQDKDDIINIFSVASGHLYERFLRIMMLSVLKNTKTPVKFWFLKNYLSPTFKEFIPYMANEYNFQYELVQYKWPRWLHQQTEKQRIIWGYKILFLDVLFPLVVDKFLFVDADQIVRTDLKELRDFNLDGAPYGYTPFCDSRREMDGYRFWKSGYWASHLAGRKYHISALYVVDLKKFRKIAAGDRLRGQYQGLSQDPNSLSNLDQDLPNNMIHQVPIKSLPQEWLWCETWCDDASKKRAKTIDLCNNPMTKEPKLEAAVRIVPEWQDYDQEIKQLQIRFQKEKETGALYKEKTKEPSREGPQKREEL

| binding [1] | binding [2] | Substance |
| --- | --- | --- |
| binds |  | 14-3-3 protein epsilon (from UniProt P62258 1-255) |
| binds |  | 14-3-3 protein zeta/delta (from UniProt P63104 1-245) |
| binds |  | 26S protease regulatory subunit 6A (from UniProt P17980 1-439) |
| binds |  | 26S protease regulatory subunit S10B (from UniProt P62333 1-389) |
| binds |  | Activator of 90 kDa heat shock protein ATPase homolog 1 (from UniProt O95433 1-338) |
| binds |  | Clathrin heavy chain 1 (from UniProt Q00610 1-1675) |
| binds |  | Coatomer subunit alpha (from UniProt P53621 1-1224) |
| binds |  | E3 ubiquitin-protein ligase UBR5 (from UniProt O95071 1-2799) |
| binds |  | FACT complex subunit SSRP1 (from UniProt Q08945 1-709) |
| binds |  | Glyceraldehyde-3-phosphate dehydrogenase (from UniProt P04406 1-335) |
| binds |  | Interleukin enhancer-binding factor 2 (from UniProt Q12905 1-390) |
| binds |  | Kinesin-1 heavy chain (from UniProt P33176 1-963) |
| binds |  | Liprin-alpha-1 (from UniProt Q13136 1-1202) |
| binds |  | Nascent polypeptide-associated complex subunit alpha, muscle-specific form (from UniProt E9PAV3 1-2078) |
| binds |  | Nuclease-sensitive element-binding protein 1 (from UniProt P67809 1-324) |
| binds |  | Nucleolar phosphoprotein p130 (from UniProt Q14978 1-699) |
| binds |  | Platelet-derived growth factor receptor alpha (from UniProt P16234 24-1089) |
| binds |  | Probable global transcription activator SNF2L4 (from UniProt P51532 1-1647) |
| binds |  | Puromycin-sensitive aminopeptidase (from UniProt P55786 1-919) |
| binds |  | Serine/threonine-protein phosphatase 2A 65 kDa regulatory subunit A alpha isoform (from UniProt P30153 1-589) |
| binds |  | Splicing factor, arginine/serine-rich 1 (from UniProt Q07955 1-248) |
| binds |  | Succinate dehydrogenase [ubiquinone] flavoprotein subunit, mitochondrial (from UniProt P31040 43-664) |
| binds |  | Tyrosine-protein phosphatase non-receptor type 11 (SHP2) (from UniProt Q06124-2 1-593) |
| binds |  | UDP-glucose:glycoprotein glucosyltransferase 1 (from UniProt Q9NYU2 43-1555) |
|  | binds | p85α regulatory subunit of phosphoinositide-3-kinase (PI3K) (from UniProt P27986 1-724) |
